Measured values from patent publication US20020165128A1, “Compositions and methods for proteolytically inactivating infectious agents using lactoferrin and related molecules” (priority 1998, published 2002).
Some entries share one result that the patent states for a list of compounds.

B1: human milk lactoferrin: lactoferrin purified from human milk whey using anion exchange and molecular sieve chromatography (protein, UniProt P02788 20-710, looked up)
Lactotransferrin: GRRRSVQWCAVSQPEATKCFQWQRNMRKVRGPPVSCIKRDSPIQCIQAIAENRADAVTLDGGFIYEAGLAPYKLRPVAAEVYGTERQPRTHYYAVAVVKKGGSFQLNELQGLKSCHTGLRRTAGWNVPIGTLRPFLNWTGPPEPIEAAVARFFSASCVPGADKGQFPNLCRLCAGTGENKCAFSSQEPYFSYSGAFKCLRDGAGDVAFIRESTVFEDLSDEAERDEYELLCPDNTRKPVDKFKDCHLARVPSHAVVARSVNGKEDAIWNLLRQAQEKFGKDKSPKFQLFGSPSGQKDLLFKDSAIGFSRVPPRIDSGLYLGSGYFTAIQNLRKSEEEVAARRARVVWCAVGEQELRKCNQWSGLSEGSVTCSSASTTEDCIALVLKGEADAMSLDGGYVYTAGKCGLVPVLAENYKSQQSSDPDPNCVDRPVEGYLAVAVVRRSDTSLTWNSVKGKKSCHTAVDRTAGWNIPMGLLFNQTGSCKFDEYFSQSCAPGSDPRSNLCALCIGDEQGENKCVPNSNERYYGYTGAFRCLAENAGDVAFVKDVTVLQNTDGNNNEAWAKDLKLADFALLCLDGKRKPVTEARSCHLAMAPNHAVVSRMDKVERLKQVLLHQQAKFGRNGSDCPDKFCLFQSETKNLLFNDNTECLARLHGKTTYEKYLGPQYVAGITNLKKCSTSPLLEACEFLRK
B2: A. awamori recombinant lactoferrin: Aspergillus awamori recombinant human lactoferrin provided by Agennix Corporation (protein, UniProt P02788 20-710, looked up)
Lactotransferrin: B1 Lactotransferrin
modifications: expressed in Aspergillus awamori

Tested on: Hap-mediated H. influenzae adherence to Chang epithelial cells
Test: Hap-mediated adherence to Chang epithelial cells
Type: cell-based, Haemophilus influenzae
Settings: DB117/HapS243A, 1 hour with 13 μM lactoferrin, 30 minutes adherence, relative to PBS = 100%

Row | Molecule | decrease in Hap-mediated adherence
1 | B1 | 85-97%
2 | B2 | 85-97%
